{"sequences": {"note": "Chains of the proteins cited; added tags and fusions are not shown. Lines headed by an entry give the natural chain unless they say otherwise; changes in a name come on top. A line that says so, or that is headed by a name, gives the form on record, which may keep a tag or linker.", "UniProt O54992": "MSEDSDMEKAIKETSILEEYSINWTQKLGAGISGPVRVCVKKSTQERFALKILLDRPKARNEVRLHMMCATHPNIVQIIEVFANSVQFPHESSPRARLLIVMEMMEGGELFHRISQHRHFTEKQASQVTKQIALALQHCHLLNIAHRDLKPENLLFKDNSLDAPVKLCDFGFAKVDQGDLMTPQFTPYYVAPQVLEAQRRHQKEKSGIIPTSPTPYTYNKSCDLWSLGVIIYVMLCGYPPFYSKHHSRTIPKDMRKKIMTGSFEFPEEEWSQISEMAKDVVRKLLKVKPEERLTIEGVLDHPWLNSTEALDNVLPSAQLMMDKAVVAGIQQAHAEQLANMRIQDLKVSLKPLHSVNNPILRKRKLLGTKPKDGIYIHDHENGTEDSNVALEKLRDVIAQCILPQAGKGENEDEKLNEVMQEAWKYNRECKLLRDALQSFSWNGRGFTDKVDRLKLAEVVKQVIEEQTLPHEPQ", "GFP-tagged MK5/PRAK-Δex8 (exon 8 deletion mutant) (O54992, form named)": "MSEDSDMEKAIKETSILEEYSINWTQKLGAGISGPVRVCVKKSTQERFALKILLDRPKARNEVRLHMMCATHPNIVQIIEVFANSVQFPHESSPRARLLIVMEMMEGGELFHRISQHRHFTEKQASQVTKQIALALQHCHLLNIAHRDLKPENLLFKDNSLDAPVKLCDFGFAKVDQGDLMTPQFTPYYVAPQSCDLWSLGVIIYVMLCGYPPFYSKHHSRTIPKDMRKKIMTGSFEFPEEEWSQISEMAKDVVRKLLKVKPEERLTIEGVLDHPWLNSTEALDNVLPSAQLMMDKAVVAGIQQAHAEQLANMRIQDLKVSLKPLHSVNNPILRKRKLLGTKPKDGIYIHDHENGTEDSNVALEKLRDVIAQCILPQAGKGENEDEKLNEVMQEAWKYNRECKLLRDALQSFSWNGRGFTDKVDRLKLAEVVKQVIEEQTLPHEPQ", "UniProt Q16659": "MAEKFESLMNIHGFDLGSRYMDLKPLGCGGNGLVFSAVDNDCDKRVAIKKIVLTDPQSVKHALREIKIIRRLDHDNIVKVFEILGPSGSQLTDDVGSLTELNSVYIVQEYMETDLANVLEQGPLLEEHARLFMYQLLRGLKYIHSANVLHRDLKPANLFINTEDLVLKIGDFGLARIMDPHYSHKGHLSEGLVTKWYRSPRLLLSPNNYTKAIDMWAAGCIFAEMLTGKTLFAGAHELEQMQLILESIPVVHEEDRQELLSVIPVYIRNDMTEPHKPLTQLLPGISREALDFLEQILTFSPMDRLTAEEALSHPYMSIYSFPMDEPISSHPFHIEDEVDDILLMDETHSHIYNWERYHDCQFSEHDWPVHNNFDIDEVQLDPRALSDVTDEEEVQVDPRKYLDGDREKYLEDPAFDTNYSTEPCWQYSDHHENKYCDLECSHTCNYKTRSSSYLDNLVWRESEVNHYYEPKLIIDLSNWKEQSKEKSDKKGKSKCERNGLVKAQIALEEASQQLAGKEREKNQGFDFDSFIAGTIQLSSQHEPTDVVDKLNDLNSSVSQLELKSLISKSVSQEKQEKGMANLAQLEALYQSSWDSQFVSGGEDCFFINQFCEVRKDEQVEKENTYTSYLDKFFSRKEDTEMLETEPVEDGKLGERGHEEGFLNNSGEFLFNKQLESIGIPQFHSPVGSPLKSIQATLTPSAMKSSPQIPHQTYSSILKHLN"}, "source": "paper PMC4546416", "key": {"[1]": {"biological_target": "GFP-tagged MK5/PRAK-Δex8 (exon 8 deletion mutant) (mouse) (UniProt O54992)", "assay": "co-IP; GFP-MK5/PRAK or its Δex6 / Δex8 mutants co-expressed with His-ERK3 in HEK293 cells; lysates (10 mM Tris/HCl pH 7.5, 150 mM NaCl, 0.5 mM EDTA, 0.5% NP-40, then diluted) incubated with GFP nanobodies on M-270 epoxy magnetic beads, 1 h at 4°C; washes up to 300 mM NaCl; ERK3 seen by Coomassie stain and by Western blot against ERK3"}, "[2]": {"biological_target": "GFP-tagged MK5/PRAK wild type (MAPK-activated protein kinase 5 / p38-regulated and -activated kinase) (mouse) (UniProt O54992)", "assay": "co-IP; GFP-MK5/PRAK or its Δex6 / Δex8 mutants co-expressed with His-ERK3 in HEK293 cells; lysates (10 mM Tris/HCl pH 7.5, 150 mM NaCl, 0.5 mM EDTA, 0.5% NP-40, then diluted) incubated with GFP nanobodies on M-270 epoxy magnetic beads, 1 h at 4°C; washes up to 300 mM NaCl; ERK3 seen by Coomassie stain and by Western blot against ERK3"}}, "note": "Results are given in words; binding and its absence hold for the method and conditions named. Binding seen in cells or lysates may run through a third protein. Some entries that bind do so weakly or less than the wild type.", "data": [{"substance": "His-ERK3 (from UniProt Q16659 1-721) (enzyme)", "values": [{"measurement": "binding", "setting": "[1]", "result": "binds"}, {"measurement": "binding", "setting": "[2]", "result": "binds"}]}]}
